Values from PubChem BioAssay AID1224830 (NIAID, 2016)

- Purpose: 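Genes whose knock-down alters the TNF-alpha reporter response to LPS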 (primary screen)
- Cell system: human THP-1 monocytic leukaemia cells, TNF dual-luciferase reporter clone, PMA-differentiated to macrophage-like cells
- Knock-down reagent: siRNA pool against human genes, 50 nM
- Duration: LPS for 4 h, given about 3 days after siRNA transfection
- Challenge: bacterial LPS (TLR4 ligand), 10 ng/ml
- Read-out: 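TNF firefly reporter luminescence divided by renilla, normalised to the plate median, then turned into a robust z-score for each replicate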
- Reading the numbers: TNF reporter robust z-score: higher = stronger TNF reporter response to LPS
- Hit rule: 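a well is active when its z-score exceeds 2.8 or falls below -1.5; control wells carry no call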
The deposit covers about 18,000 reagents; below is an unselected part. About 2,900 of them (16%) were called active. 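Calls are made per well; low scores hint the gene aids the LPS response, high scores that it dampens it.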 Repeated entries: four replicate wells of each siRNA pool.

target | TNF reporter robust z-score | Call
SPINK13 (serine peptidase inhibitor Kazal type 13) | 0.16 | inactive
SPINK13 (serine peptidase inhibitor Kazal type 13) | -0.32 | inactive
SPINK13 (serine peptidase inhibitor Kazal type 13) | 1.32 | inactive
SPINK13 (serine peptidase inhibitor Kazal type 13) | 0.92 | inactive
PCGF6 (polycomb group ring finger 6) | -0.1 | inactive
PCGF6 (polycomb group ring finger 6) | 0.98 | inactive
PCGF6 (polycomb group ring finger 6) | -0.64 | inactive
PCGF6 (polycomb group ring finger 6) | -0.82 | inactive
GP1BA (glycoprotein Ib platelet subunit alpha) | -1.37 | inactive
GP1BA (glycoprotein Ib platelet subunit alpha) | -0.03 | inactive
GP1BA (glycoprotein Ib platelet subunit alpha) | -0.9 | inactive
GP1BA (glycoprotein Ib platelet subunit alpha) | -0.42 | inactive
C4orf50 (chromosome 4 open reading frame 50) | -1.09 | inactive
C4orf50 (chromosome 4 open reading frame 50) | -0.35 | inactive
C4orf50 (chromosome 4 open reading frame 50) | -1.33 | inactive
C4orf50 (chromosome 4 open reading frame 50) | 0.45 | inactive
NEK1 (NIMA related kinase 1) | -0.76 | inactive
NEK1 (NIMA related kinase 1) | 0.35 | inactive
NEK1 (NIMA related kinase 1) | -1.33 | inactive
NEK1 (NIMA related kinase 1) | 0.37 | inactive
CEP41 (centrosomal protein 41) | -0.97 | inactive
CEP41 (centrosomal protein 41) | -0.5 | inactive
CEP41 (centrosomal protein 41) | -1.47 | inactive
CEP41 (centrosomal protein 41) | -1.23 | inactive
ATP6V0A1 (ATPase H+ transporting V0 subunit a1) | -0.54 | inactive
ATP6V0A1 (ATPase H+ transporting V0 subunit a1) | -0.08 | inactive
ATP6V0A1 (ATPase H+ transporting V0 subunit a1) | -0.89 | inactive
ATP6V0A1 (ATPase H+ transporting V0 subunit a1) | -0.02 | inactive
VWA3B (von Willebrand factor A domain containing 3B) | 0.21 | inactive
VWA3B (von Willebrand factor A domain containing 3B) | 0.48 | inactive
VWA3B (von Willebrand factor A domain containing 3B) | 0.69 | inactive
VWA3B (von Willebrand factor A domain containing 3B) | 0.94 | inactive
SACK1D (scaffolding CK1 anchoring protein D) | -0.64 | inactive
SACK1D (scaffolding CK1 anchoring protein D) | 0.07 | inactive
SACK1D (scaffolding CK1 anchoring protein D) | 0.56 | inactive
SACK1D (scaffolding CK1 anchoring protein D) | 0.09 | inactive
EVA1B (eva-1 homolog B) | -0.59 | inactive
EVA1B (eva-1 homolog B) | -0.97 | inactive
EVA1B (eva-1 homolog B) | -0.05 | inactive
EVA1B (eva-1 homolog B) | 0.63 | inactive
NOP10 (NOP10 ribonucleoprotein) | 0.7 | inactive
NOP10 (NOP10 ribonucleoprotein) | 0.57 | inactive
NOP10 (NOP10 ribonucleoprotein) | -0.05 | inactive
NOP10 (NOP10 ribonucleoprotein) | 2.19 | inactive
EBPL (EBP like) | -1.13 | inactive
EBPL (EBP like) | 0.01 | inactive
EBPL (EBP like) | -0.15 | inactive
EBPL (EBP like) | 0.07 | inactive
C1orf198 (chromosome 1 open reading frame 198) | -0.02 | inactive
C1orf198 (chromosome 1 open reading frame 198) | 0.2 | inactive
C1orf198 (chromosome 1 open reading frame 198) | -0.6 | inactive
C1orf198 (chromosome 1 open reading frame 198) | 0.79 | inactive
GUCY2F (guanylate cyclase 2F, retinal) | -0.24 | inactive
GUCY2F (guanylate cyclase 2F, retinal) | 1.36 | inactive
GUCY2F (guanylate cyclase 2F, retinal) | 1.76 | inactive
GUCY2F (guanylate cyclase 2F, retinal) | 2.72 | inactive
RARG (retinoic acid receptor gamma) | 0.41 | inactive
RARG (retinoic acid receptor gamma) | -0.79 | inactive
RARG (retinoic acid receptor gamma) | -1.09 | inactive
RARG (retinoic acid receptor gamma) | -0.68 | inactive
TXNDC15 (thioredoxin domain containing 15) | 1.78 | inactive
TXNDC15 (thioredoxin domain containing 15) | 1.54 | inactive
TXNDC15 (thioredoxin domain containing 15) | 2.05 | inactive
TXNDC15 (thioredoxin domain containing 15) | 1.47 | inactive
SPIN4 (spindlin family member 4) | -1.08 | inactive
SPIN4 (spindlin family member 4) | -1.01 | inactive
SPIN4 (spindlin family member 4) | -0.7 | inactive
SPIN4 (spindlin family member 4) | 0.56 | inactive
OLIG3 (oligodendrocyte transcription factor 3) | 0.94 | inactive
OLIG3 (oligodendrocyte transcription factor 3) | 0.91 | inactive
OLIG3 (oligodendrocyte transcription factor 3) | 1.04 | inactive
OLIG3 (oligodendrocyte transcription factor 3) | 1.2 | inactive
OR5AK2 (olfactory receptor family 5 subfamily AK member 2) | 0.58 | inactive
OR5AK2 (olfactory receptor family 5 subfamily AK member 2) | 0.75 | inactive
OR5AK2 (olfactory receptor family 5 subfamily AK member 2) | -1.06 | inactive
OR5AK2 (olfactory receptor family 5 subfamily AK member 2) | 0.43 | inactive
